We go through 17 targets from the supplement of paper PMC6411743.

By UniProt entry, the sequences of proteins in these tests, tags left out. Where a name states a change or a piece, a line headed by the entry shows the natural chain unless it says otherwise.
UniProt Q15005: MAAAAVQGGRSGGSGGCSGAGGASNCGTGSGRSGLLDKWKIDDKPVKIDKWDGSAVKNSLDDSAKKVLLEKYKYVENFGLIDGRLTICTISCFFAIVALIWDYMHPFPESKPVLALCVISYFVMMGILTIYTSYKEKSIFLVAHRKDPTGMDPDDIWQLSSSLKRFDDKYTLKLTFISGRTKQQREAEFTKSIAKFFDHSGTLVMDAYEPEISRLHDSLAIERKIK
UniProt P35227: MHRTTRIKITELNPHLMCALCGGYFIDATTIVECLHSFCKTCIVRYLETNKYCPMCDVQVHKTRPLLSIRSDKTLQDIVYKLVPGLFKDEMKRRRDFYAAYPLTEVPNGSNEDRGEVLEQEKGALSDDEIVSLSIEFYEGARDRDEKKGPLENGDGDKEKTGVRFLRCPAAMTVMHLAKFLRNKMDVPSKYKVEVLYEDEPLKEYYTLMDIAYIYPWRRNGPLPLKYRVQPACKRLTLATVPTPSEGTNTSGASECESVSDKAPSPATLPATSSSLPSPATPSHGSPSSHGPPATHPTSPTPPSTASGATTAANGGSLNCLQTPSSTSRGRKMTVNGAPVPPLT
UniProt Q9NXU5: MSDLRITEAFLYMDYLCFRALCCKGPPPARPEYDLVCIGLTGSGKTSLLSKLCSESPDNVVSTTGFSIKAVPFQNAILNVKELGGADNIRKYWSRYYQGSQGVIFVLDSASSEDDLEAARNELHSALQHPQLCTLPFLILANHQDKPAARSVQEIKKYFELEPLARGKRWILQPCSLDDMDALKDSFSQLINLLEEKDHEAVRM
UniProt Q3LXA3: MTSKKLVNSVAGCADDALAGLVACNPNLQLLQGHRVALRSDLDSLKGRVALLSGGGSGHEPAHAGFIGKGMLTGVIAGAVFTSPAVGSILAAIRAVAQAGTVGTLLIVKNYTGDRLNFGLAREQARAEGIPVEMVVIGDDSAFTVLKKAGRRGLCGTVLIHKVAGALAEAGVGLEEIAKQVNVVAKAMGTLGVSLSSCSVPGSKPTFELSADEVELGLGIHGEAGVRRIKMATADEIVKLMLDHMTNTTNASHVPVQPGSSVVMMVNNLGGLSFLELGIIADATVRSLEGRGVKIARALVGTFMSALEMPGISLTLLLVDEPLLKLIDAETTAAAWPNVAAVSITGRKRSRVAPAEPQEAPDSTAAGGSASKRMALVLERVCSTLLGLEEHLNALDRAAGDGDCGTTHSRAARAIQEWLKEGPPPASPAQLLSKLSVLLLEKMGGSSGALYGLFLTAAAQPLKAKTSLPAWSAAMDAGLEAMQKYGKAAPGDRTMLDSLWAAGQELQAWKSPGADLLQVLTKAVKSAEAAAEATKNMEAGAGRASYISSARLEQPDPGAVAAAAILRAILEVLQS
UniProt Q9UNZ2: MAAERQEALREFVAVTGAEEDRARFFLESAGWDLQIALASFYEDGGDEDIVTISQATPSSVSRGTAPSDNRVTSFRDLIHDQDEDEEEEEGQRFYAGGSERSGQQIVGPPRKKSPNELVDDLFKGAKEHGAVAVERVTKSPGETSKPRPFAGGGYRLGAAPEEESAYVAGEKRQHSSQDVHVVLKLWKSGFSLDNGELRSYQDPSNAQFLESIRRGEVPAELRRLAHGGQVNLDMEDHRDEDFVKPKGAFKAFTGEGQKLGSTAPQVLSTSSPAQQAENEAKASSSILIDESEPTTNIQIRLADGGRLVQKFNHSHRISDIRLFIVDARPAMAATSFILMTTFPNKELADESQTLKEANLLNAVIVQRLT
UniProt Q9H0U3: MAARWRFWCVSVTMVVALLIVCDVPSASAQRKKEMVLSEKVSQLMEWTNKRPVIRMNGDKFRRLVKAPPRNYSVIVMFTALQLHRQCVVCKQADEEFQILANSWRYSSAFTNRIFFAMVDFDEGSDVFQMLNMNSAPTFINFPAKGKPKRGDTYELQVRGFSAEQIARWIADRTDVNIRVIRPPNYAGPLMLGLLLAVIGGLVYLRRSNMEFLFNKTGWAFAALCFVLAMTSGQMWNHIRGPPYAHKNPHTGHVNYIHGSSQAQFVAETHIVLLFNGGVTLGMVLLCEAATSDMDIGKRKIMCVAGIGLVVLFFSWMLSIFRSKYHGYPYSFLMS
UniProt P25787: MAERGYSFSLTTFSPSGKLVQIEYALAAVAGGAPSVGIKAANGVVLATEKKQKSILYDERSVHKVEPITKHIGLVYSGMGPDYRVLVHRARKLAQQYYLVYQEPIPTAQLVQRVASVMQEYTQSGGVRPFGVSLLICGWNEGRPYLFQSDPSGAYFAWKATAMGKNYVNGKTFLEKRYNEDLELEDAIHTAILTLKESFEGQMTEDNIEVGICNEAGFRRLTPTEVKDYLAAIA
UniProt P36969, whole entry: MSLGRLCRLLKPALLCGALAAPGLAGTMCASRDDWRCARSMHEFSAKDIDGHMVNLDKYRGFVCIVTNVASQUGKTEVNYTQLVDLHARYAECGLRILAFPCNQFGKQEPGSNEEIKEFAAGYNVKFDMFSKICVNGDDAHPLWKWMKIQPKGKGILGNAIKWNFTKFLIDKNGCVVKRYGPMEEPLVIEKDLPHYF
UniProt P30519: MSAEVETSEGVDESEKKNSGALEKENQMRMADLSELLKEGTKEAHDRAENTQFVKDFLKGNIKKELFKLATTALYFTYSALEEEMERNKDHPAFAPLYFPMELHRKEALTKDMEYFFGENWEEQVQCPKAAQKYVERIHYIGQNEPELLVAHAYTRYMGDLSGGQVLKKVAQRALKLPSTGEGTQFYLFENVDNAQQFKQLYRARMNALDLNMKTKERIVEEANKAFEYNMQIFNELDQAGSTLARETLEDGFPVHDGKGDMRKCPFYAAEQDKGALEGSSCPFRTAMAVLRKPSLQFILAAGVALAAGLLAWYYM
UniProt Q8N5I9: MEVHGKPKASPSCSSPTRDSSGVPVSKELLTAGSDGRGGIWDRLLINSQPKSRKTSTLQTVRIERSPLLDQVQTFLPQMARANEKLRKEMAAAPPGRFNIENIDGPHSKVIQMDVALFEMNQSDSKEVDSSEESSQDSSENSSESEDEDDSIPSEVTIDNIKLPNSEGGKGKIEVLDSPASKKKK
UniProt Q9UP83: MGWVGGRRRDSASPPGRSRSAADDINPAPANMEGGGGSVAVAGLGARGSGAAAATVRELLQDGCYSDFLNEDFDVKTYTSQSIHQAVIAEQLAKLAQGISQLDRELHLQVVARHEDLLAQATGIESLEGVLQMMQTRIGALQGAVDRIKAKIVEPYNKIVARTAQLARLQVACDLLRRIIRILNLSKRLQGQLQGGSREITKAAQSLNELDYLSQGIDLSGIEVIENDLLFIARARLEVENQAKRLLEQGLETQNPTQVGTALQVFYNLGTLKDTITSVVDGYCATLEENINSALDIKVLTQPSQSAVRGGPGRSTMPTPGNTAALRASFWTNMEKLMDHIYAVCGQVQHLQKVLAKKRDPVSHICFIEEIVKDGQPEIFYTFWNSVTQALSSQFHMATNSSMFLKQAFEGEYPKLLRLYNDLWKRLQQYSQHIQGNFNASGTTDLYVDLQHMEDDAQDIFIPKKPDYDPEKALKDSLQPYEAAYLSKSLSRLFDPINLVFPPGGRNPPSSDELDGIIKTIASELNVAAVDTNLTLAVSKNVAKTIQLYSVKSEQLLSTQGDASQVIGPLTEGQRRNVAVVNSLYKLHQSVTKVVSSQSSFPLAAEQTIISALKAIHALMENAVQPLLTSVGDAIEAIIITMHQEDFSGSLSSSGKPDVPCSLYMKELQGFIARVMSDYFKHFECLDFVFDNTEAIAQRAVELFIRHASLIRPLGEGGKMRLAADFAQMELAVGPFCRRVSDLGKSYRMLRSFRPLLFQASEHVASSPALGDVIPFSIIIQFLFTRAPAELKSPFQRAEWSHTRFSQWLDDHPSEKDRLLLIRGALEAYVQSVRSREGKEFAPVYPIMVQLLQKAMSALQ
UniProt P57105: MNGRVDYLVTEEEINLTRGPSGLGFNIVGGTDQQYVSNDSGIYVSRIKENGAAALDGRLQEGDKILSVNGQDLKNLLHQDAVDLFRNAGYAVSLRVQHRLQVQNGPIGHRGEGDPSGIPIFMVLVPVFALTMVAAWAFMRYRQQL
UniProt Q96GX5: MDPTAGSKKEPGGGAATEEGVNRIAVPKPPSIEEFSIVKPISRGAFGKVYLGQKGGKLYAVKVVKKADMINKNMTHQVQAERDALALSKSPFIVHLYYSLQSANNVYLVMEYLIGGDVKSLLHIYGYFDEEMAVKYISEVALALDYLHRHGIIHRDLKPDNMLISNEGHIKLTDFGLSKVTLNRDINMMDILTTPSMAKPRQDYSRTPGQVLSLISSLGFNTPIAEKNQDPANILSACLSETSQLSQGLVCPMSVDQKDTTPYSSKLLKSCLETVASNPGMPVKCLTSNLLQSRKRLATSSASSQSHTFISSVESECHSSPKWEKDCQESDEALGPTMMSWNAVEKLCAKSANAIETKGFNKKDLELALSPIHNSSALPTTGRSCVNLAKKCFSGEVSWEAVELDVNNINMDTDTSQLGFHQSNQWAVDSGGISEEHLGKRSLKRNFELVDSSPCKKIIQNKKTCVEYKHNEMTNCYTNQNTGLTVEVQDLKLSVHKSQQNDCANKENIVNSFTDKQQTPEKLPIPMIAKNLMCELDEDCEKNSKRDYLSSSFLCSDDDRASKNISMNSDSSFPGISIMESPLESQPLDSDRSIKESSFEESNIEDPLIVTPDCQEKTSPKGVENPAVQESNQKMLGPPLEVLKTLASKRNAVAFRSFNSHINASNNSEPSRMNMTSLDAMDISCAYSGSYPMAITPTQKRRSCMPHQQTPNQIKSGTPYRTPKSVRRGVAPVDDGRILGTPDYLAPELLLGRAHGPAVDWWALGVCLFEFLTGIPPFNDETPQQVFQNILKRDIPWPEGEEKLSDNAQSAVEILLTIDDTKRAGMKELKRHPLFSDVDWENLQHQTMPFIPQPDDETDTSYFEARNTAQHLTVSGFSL
UniProt O14979: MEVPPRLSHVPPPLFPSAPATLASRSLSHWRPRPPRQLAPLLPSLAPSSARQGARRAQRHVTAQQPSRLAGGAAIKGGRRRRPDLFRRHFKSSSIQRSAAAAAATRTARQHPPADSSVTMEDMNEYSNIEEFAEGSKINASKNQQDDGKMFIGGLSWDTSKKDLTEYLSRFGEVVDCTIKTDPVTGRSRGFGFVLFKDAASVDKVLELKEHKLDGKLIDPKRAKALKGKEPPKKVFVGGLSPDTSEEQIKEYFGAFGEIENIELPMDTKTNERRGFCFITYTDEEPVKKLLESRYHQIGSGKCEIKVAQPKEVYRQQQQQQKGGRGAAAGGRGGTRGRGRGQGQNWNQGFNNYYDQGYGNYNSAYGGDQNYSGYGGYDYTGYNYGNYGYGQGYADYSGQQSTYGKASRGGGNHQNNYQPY
UniProt O60841: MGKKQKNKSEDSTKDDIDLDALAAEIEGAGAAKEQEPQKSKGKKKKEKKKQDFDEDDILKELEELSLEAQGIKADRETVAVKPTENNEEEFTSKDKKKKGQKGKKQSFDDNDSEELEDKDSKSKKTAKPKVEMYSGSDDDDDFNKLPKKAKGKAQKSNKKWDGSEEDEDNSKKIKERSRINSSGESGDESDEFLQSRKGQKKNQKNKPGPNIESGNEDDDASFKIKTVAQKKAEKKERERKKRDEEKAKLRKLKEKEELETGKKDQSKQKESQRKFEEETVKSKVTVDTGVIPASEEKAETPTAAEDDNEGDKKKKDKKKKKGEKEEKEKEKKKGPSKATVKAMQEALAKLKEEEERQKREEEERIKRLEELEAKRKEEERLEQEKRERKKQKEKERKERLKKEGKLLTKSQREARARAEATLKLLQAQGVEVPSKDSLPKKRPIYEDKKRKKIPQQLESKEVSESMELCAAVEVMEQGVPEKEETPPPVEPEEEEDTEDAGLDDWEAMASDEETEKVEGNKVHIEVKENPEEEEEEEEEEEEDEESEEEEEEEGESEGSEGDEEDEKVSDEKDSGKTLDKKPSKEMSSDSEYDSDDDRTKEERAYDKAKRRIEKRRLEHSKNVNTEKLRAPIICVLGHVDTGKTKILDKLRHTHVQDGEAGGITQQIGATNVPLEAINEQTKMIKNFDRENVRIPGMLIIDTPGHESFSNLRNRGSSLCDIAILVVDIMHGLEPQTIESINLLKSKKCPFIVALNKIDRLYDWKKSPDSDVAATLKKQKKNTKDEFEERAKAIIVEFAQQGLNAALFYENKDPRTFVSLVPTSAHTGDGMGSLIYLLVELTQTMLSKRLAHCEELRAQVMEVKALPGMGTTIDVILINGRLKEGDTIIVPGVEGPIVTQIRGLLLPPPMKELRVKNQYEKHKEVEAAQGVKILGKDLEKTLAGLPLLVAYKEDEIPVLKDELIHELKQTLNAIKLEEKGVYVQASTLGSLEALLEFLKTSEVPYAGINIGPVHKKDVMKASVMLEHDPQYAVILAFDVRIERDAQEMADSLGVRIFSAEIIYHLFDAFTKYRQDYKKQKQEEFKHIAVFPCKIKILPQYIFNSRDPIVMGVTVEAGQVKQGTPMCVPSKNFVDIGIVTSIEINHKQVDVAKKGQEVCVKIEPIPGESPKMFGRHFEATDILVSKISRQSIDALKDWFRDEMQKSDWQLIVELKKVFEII

Compound in assay [1]: Nc1ncnc2c1ncn2[C@@H]1O[C@H](COP(=O)(O)OP(=O)(O)NP(=O)(O)O)[C@@H](O)[C@H]1O [adenylyl imidodiphosphate]
Briefly: NP40-soluble protein abundance relative to vehicle (solubility fold change) (ratio); higher = more soluble protein in presence of AMP-PNP. The method in brief:
(§1)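 Each value is a fold change relative to the detergent-processed vehicle, calculated per replicate from vsn-normalised intensities. Jurkat crude lysate received eight concentrations (0.1 to 10 mM) for 10 min at room temperature and 3 min at 37 °C, then was solubilised in 0.8% NP40 with benzonase (60 min, 4 °C). The ultracentrifuged supernatant was TMT-labelled and run by LC-MS/MS in three independent experiments.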

Compound in another assay: Nc1nc2c(ncn2[C@@H]2O[C@H](COP(=O)(O)OP(=O)(O)OP(=O)(O)O)[C@@H](O)[C@H]2O)c(=O)[nH]1 [guanosine triphosphate]
Briefly: NP40-soluble protein abundance relative to vehicle (solubility fold change) (ratio); higher = more soluble protein in presence of GTP. The method in brief: as §1

± gives the standard deviation of the averaged measurements. Only a part is listed here, and it is no random draw. The list shows a part of the results.

“A0A087WUC6|E9PI68 and related entries (UniProt Q15005)”: the NP40-soluble protein abundance is 1.01 ± 0.018 in assay [1] (concentration: 1mM); 0.962 ± 0.012 in assay [1] (concentration: 2mM); 1 ± 0.035 in assay [1] (concentration: 4mM); 1.02 ± 0.058 in assay [1] (concentration: 6mM); 1.02 ± 0.036 in assay [1] (concentration: 8mM); 0.981 ± 0.058 in assay [1] (concentration: 10mM).

As to A0A024R1V6|P35227 (UniProt P35227), the NP40-soluble protein abundance in assay [1] (concentration: 1mM) worked out at 1.01 ± 0.017; in assay [1] (concentration: 2mM), 1 ± 0.03; in assay [1] (concentration: 4mM) it was 1.02 ± 0.0049; in assay [1] (concentration: 6mM) it was 1.02 ± 0.011; in assay [1] (concentration: 8mM), 1.05 ± 0.038; in assay [1] (concentration: 10mM), 1.08 ± 0.048.

With A0A087WUW9|Q9NXU5 (UniProt Q9NXU5), the NP40-soluble protein abundance in assay [1] (concentration: 1mM) turned out to be 1 ± 0.053; in assay [1] (concentration: 2mM), 1.013 ± 0.0089; in assay [1] (concentration: 4mM) it was 1.04 ± 0.05; in assay [1] (concentration: 6mM), 1 ± 0.04; in assay [1] (concentration: 8mM), 0.974 ± 0.044; in assay [1] (concentration: 10mM) it was 0.999 ± 0.043.

Regarding A0A087WUL0|Q3LXA3 (UniProt Q3LXA3), the NP40-soluble protein abundance in assay [1] (concentration: 1mM) was determined as 1.02 ± 0.024; in assay [1] (concentration: 2mM), 1.05 ± 0.05; in assay [1] (concentration: 4mM) it was 1.03 ± 0.054; in assay [1] (concentration: 6mM), 0.997 ± 0.01; in assay [1] (concentration: 8mM), 0.963 ± 0.027; in assay [1] (concentration: 10mM), 1.02 ± 0.036.

With A0A087WVP1|Q14517 (UniProt Q14517), the NP40-soluble protein abundance in assay [1] (concentration: 1mM) was determined as 0.993 ± 0.066; in assay [1] (concentration: 2mM), 1.06 ± 0.019; in assay [1] (concentration: 4mM), 1.03 ± 0.056; in assay [1] (concentration: 6mM) it was 1 ± 0.096; in assay [1] (concentration: 8mM) it was 0.959 ± 0.05; in assay [1] (concentration: 10mM), 1.01 ± 0.076.

UniProt Q9UNZ2 and related entries: the NP40-soluble protein abundance with guanosine triphosphate (concentration: 0.1mM) is 0.94 ± 0.067; with guanosine triphosphate (concentration: 0.5mM), 0.926 ± 0.045; with guanosine triphosphate (concentration: 1mM), 0.955 ± 0.071; in the assay with guanosine triphosphate (concentration: 2mM), 0.9 ± 0.078; with guanosine triphosphate (concentration: 4mM), 0.916 ± 0.083; with guanosine triphosphate (concentration: 6mM) it was 0.909 ± 0.072. Moreover, the NP40-soluble protein abundance with guanosine triphosphate (concentration: 8mM) stood at 0.924 ± 0.067; in the assay with guanosine triphosphate (concentration: 10mM), 0.914 ± 0.073.

Regarding A0A087WU53|Q9H0U3 (UniProt Q9H0U3), the NP40-soluble protein abundance is 0.944 ± 0.055 in assay [1] (concentration: 1mM); 0.8894 ± 0.0073 in assay [1] (concentration: 2mM); 0.949 ± 0.041 in assay [1] (concentration: 4mM); 1.02 ± 0.057 in assay [1] (concentration: 6mM); 1.03 ± 0.038 in assay [1] (concentration: 8mM); 0.95 ± 0.04 in assay [1] (concentration: 10mM).

As for A0A024RA52|P25787 (UniProt P25787), the NP40-soluble protein abundance stood at 0.944 ± 0.033 in assay [1] (concentration: 1mM); 0.922 ± 0.035 in assay [1] (concentration: 2mM); 0.868 ± 0.038 in assay [1] (concentration: 4mM); 0.914 ± 0.062 in assay [1] (concentration: 6mM); 0.893 ± 0.072 in assay [1] (concentration: 8mM); 0.903 ± 0.11 in assay [1] (concentration: 10mM).

For the target “A0A087WT12|A0A087X2I2|K7ERP4 and related entries (UniProt P36969)”, the NP40-soluble protein abundance was found to be 0.954 ± 0.054 in assay [1] (concentration: 1mM); 0.939 ± 0.05 in assay [1] (concentration: 2mM); 1.02 ± 0.11 in assay [1] (concentration: 4mM); 1.09 ± 0.16 in assay [1] (concentration: 6mM); 1.12 ± 0.13 in assay [1] (concentration: 8mM); 1.13 ± 0.14 in assay [1] (concentration: 10mM).

As to “A0A087WT44|P30519 and related entries (UniProt P30519)”, the NP40-soluble protein abundance in assay [1] (concentration: 1mM) worked out at 1.031 ± 0.0061; in assay [1] (concentration: 2mM) it was 1.05 ± 0.037; in assay [1] (concentration: 4mM) it was 1.04 ± 0.041; in assay [1] (concentration: 6mM) it was 0.9921 ± 0.0045; in assay [1] (concentration: 8mM) it was 0.982 ± 0.023; in assay [1] (concentration: 10mM), 0.979 ± 0.044.

On to “A0A087WUW5|A0A0U1RRM4|A6NLN1 and related entries (UniProt P26599)”, for which the NP40-soluble protein abundance in assay [1] (concentration: 1mM) worked out at 1.02 ± 0.032; in assay [1] (concentration: 2mM), 1.06 ± 0.064; in assay [1] (concentration: 4mM) it was 1.04 ± 0.035; in assay [1] (concentration: 6mM), 1.03 ± 0.036; in assay [1] (concentration: 8mM), 1.03 ± 0.024; in assay [1] (concentration: 10mM), 1.06 ± 0.027.

For A0A087WT30|Q8N5I9 (UniProt Q8N5I9), the NP40-soluble protein abundance in assay [1] (concentration: 1mM) was 1.22 ± 0.044; in assay [1] (concentration: 2mM) it was 1.25 ± 0.072; in assay [1] (concentration: 4mM), 1.18 ± 0.02; in assay [1] (concentration: 6mM) it was 1.16 ± 0.036; in assay [1] (concentration: 8mM), 1.14 ± 0.035; in assay [1] (concentration: 10mM), 1.14 ± 0.041.

Turning to UniProt Q9UP83 and related entries, the NP40-soluble protein abundance with guanosine triphosphate (concentration: 0.1mM) stood at 0.99 ± 0.069; in the assay with guanosine triphosphate (concentration: 0.5mM), 1.05 ± 0.045; with guanosine triphosphate (concentration: 1mM), 1.004 ± 0.0091; with guanosine triphosphate (concentration: 2mM), 1.06 ± 0.03; with guanosine triphosphate (concentration: 4mM) it was 1.02 ± 0.039; in the assay with guanosine triphosphate (concentration: 6mM), 1.06 ± 0.079. Besides, the NP40-soluble protein abundance came out at 1.04 ± 0.098 in the assay with guanosine triphosphate (concentration: 8mM) and 1.07 ± 0.08 with guanosine triphosphate (concentration: 10mM).

As for A0A087WUM0 (UniProt P57105), the NP40-soluble protein abundance in assay [1] (concentration: 1mM) is 1.01 ± 0.032; in assay [1] (concentration: 2mM), 0.986 ± 0.04; in assay [1] (concentration: 4mM), 0.967 ± 0.029; in assay [1] (concentration: 6mM), 0.962 ± 0.037; in assay [1] (concentration: 8mM), 0.958 ± 0.028; in assay [1] (concentration: 10mM), 0.959 ± 0.036.

For “A0A087WUU7|Q96GX5 and related entries (UniProt Q96GX5)”, the NP40-soluble protein abundance in assay [1] (concentration: 1mM) is 1.01 ± 0.02; in assay [1] (concentration: 2mM) it was 1.07 ± 0.036; in assay [1] (concentration: 4mM), 1.01 ± 0.044; in assay [1] (concentration: 6mM), 0.976 ± 0.023; in assay [1] (concentration: 8mM) it was 0.967 ± 0.011; in assay [1] (concentration: 10mM), 0.991 ± 0.04.

Take “A0A087WUK2|O14979 and related entries (UniProt O14979)”: the NP40-soluble protein abundance in assay [1] (concentration: 1mM) was 1.01 ± 0.094; in assay [1] (concentration: 2mM), 1.04 ± 0.037; in assay [1] (concentration: 4mM) it was 0.984 ± 0.06; in assay [1] (concentration: 6mM) it was 0.972 ± 0.092; in assay [1] (concentration: 8mM) it was 0.944 ± 0.075; in assay [1] (concentration: 10mM) it was 0.998 ± 0.075.

On to A0A087WUT6|O60841 (UniProt O60841), for which the NP40-soluble protein abundance was found to be 1.05 ± 0.012 in assay [1] (concentration: 1mM); 1.02 ± 0.018 in assay [1] (concentration: 2mM); 1.02 ± 0.017 in assay [1] (concentration: 4mM); 1.01 ± 0.033 in assay [1] (concentration: 6mM); 1.004 ± 0.0073 in assay [1] (concentration: 8mM); 0.997 ± 0.035 in assay [1] (concentration: 10mM).
